Experimental data from PubChem BioAssay AID2551 (National Center for Advancing Translational Sciences (NCATS), 2010).
The campaign covered roughly 310,000 compounds. About 17,000 (5.5%) were called active. The inconclusive results got no clear call from the source; some entries with a clear call stand among them for comparison. Calls come from the whole dose curve; as a rule, active = well fitted inhibition curve with a large enough effect; inconclusive = small, poorly fitted or top-dose-only effect, or effect the other way; inactive = no such curve, though single readings can be large or run the other way. Potencies of inconclusive entries are doubtful fits and often do not repeat.

Sequences of proteins named here, by UniProt entry; tags and fusion partners are left off. A change or cut given only in a name is not applied to a line headed by its entry.
UniProt P51450: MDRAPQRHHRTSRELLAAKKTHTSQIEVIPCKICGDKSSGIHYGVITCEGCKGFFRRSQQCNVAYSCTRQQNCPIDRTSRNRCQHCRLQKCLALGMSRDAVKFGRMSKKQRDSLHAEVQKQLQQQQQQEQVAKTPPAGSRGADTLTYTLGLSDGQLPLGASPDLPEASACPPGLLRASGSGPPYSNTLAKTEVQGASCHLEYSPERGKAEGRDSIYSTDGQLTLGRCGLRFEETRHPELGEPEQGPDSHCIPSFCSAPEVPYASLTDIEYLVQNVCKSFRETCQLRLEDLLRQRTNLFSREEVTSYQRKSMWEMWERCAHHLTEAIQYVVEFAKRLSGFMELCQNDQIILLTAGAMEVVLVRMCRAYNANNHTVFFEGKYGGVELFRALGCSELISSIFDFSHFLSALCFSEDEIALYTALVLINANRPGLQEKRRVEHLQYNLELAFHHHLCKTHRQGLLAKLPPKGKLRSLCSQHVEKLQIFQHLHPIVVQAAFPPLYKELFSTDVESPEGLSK

Molecular target: Nuclear receptor ROR-gamma (Mus musculus) (UniProt P51450)
Assay: qHTS for inhibitors of ROR gamma transcriptional activity; note: nearly all actives have a fitted effect of over 60% in size
Details: Drosophila S2 Gal4-RORgamma UAS-luciferase reporter, 20 h; activity change, negative = inhibition: at 53.6 µM (top of the series)
Procedure, shortened: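 A Gal4/UAS one-hybrid system in insect cells: metallothionein-promoter Gal4–ROR gamma fusion plus Photinus luciferase reporter. Copper sulfate 700 uM final, 20 hr ambient incubation, luminescent detection after 10 min with reagent.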
% is set by controls: 0 for no effect and ±100 for the full control effect; potency is the fitted concentration of half-maximal effect.

Compound	activity change, negative = inhibition	Potency
O=C(Nc1ccccc1)N1CCC(c2nc(-c3ccc(S(=O)(=O)N4CCOCC4)cc3)no2)CC1	inactive: -4.94% [at 10 µM]	–
CCCN1CCC(NC(=O)c2cccc(Oc3ccccc3)c2)CC1	inactive: -12.3%	–
CC(NC(=S)Nc1ccc(S(=O)(=O)N2CCOCC2)cc1)C1CC2CCC1C2 (stereo not given)	–	inconclusive: 31.6 µM [inhibitor, single point]
CC(C)(C)c1ccc(C(=O)NCC(=O)N/N=C/c2cccs2)cc1	–	inconclusive: 20 µM [inhibitor, single point]
C=C(C)COc1ccc(-c2ncncc2-c2ccc(OC)cc2)c(O)c1	–	inconclusive: 35.5 µM [inhibitor, single point]
Cc1ccccc1NC(=O)N1C2CCCC1CC(NC(=O)C(C)(C)C)C2 (stereo not given)	inactive: -18.6%	–
Cc1ccc(-n2c(=S)[nH]c3sc4c(c3c2=O)CCc2ccccc2-4)cc1	–	active: 0.447 µM
COc1ccc(NC(=S)N(CCc2c(C)[nH]c3ccccc23)Cc2ccco2)cc1	–	inconclusive: 20 µM [inhibitor, single point]
Cc1ccc(S(=O)(=O)Nc2nc(C)c(NC(=O)OCCCl)s2)cc1	inactive: -13.2%	–
COc1cc(NC(=O)CCc2c(C)nn(-c3ccc(N4CCOCC4)nn3)c2C)cc(OC)c1OC	inactive: 15.7%	–
CNC[C@H](CC1CCCCC1)NC[C@H](Cc1ccccc1)NCCC12CC3CC(CC(C3)C1)C2	–	active: 20 µM
CCn1cc(Br)c(C(=O)Nc2cccc(SC)c2)n1	–	inconclusive: 0.501 µM [activator, full curve, poor fit]
Cc1cc(/C=C(\C#N)C(=O)Nc2ccccc2)c(C)n1-c1cccnc1	–	inconclusive: 4.47 µM [activator, full curve]
Brc1ccc(Cn2c(-c3cncs3)nc3ccccc32)cc1	–	inconclusive: 5.01 µM [inhibitor, full curve, poor fit]
COc1ccc(F)cc1C(=O)C1CCCN(Cc2cccn2-c2cccnc2)C1 (stereo not given)	inactive: -11.3%	–
Cc1ccccc1CN(CC(=O)Nc1cccc([N+](=O)[O-])c1)S(=O)(=O)c1ccc(Cl)cc1	–	inconclusive: 20 µM [activator, single point]
O=C(O)CC(NC(=O)C12CC3CC(CC(C3)C1)C2)c1ccc(F)cc1 (stereo not given)	inactive: 10.6%	–
CCOC(=O)c1cc(OC(=O)c2cccs2)n(-c2ccccc2)n1	–	inconclusive: 12.6 µM [activator, single point]
COCC1CCCN(C(=O)c2ccc3nc(Cc4cccc(Cl)c4)oc3c2)C1 (stereo not given)	–	inconclusive: 3.16 µM [activator, full curve]
Cc1cccc(C(=O)CC(=O)c2cc(Cl)ccc2O)c1	–	inconclusive: 35.5 µM [inhibitor, single point]
O=C(c1ccc(F)cc1)c1cc2ccccc2o1	–	inconclusive: 2.82 µM [activator, full curve]
CCNc1ncc2nc(-c3ccc(F)cc3)c(=O)n(Cc3ccc(F)cc3)c2n1	inactive: -16.7%	–
O=C(CSc1ccccc1)Nc1cc(S(=O)(=O)N2CCOCC2)ccc1N1CCOCC1	inactive: 6.58%	–

Compound	activity change, negative = inhibition	Potency
Cc1ccccc1Nc1nc2ccccc2n1C(C)C	–	active: 10 µM
CC1C(=O)Nc2ccc(S(=O)(=O)N3CCN(c4cccc(C(F)(F)F)c4)CC3)cc2NC1=O (stereo not given)	–	inconclusive: 35.5 µM [activator, single point]
O=C(CSc1nncs1)Nc1ccc(S(=O)(=O)N2CCCC2)cc1	inactive: 1.63%	–
C#CCn1c(=NC(=O)c2cc(-c3cccs3)nc3ccccc23)sc2cc(S(N)(=O)=O)ccc21	–	inconclusive: 17.8 µM [inhibitor, single point]
CCNc1cc(Nc2c(C)n(C)n(-c3ccccc3)c2=O)c([N+](=O)[O-])c2nonc12	inactive: 24.6%	–
COc1cc(OC)c(C(=O)OCC(=O)c2cc(C)n(CC3CCCO3)c2C)cc1OC (stereo not given)	–	inconclusive: 2.51 µM [inhibitor, full curve, poor fit]
Cn1c(C(C#N)C2=C(Cl)C(=O)N(c3ccccc3)C2=O)nc2ccccc21 (stereo not given)	–	inconclusive: 22.4 µM [inhibitor, single point]
Cn1c(=O)c2c(nc(N/N=C/c3ccc(OC(=O)c4ccco4)cc3)n2Cc2ccc(F)cc2)n(C)c1=O	inactive: -10.5%	–
CSc1nc2nccc(-c3ccc(Oc4ccccc4)cc3)n2n1	–	inconclusive: 0.631 µM [activator, full curve, poor fit]
CCN1CCC2(CC1)N=C(c1ccc(F)cc1)C(=S)N2	–	active: 12.6 µM
Cc1nc(NC(=O)CC(C)C)sc1-c1csc(Nc2ccc(Cl)cc2)n1	–	inconclusive: 11.2 µM [activator, single point]
CCCN(CCC)C(=O)CSc1nc2ccsc2c(=O)n1NC(=O)c1ccccc1	–	inconclusive: 6.31 µM [activator, partial curve]
O=C(N/N=C/c1ccc[nH]1)c1ccc(O)cc1	–	active: 8.91 µM
COc1ccc(S(=O)(=O)N2CCNCC2)cc1OC	–	inconclusive: 22.4 µM [activator, single point]
CC(=O)C1=C(C)NC(SCC(=O)c2ccc(Cl)cc2Cl)=C(C#N)C1c1ccco1 (stereo not given)	–	inconclusive: 14.1 µM [inhibitor, single point]
CN(C)CCCN(C(=O)c1ccc(S(=O)(=O)N(C)Cc2ccccc2)cc1)c1nc2c(F)cccc2s1	–	inconclusive: 10 µM [inhibitor, partial curve]
CN(C)c1ccc(N=Cc2cccn2C)cc1	–	inconclusive: 31.6 µM [inhibitor, single point]
COc1ccccc1C(=O)Nc1c(C(=O)N(CCN(C)C)Cc2ccco2)oc2ccccc12	–	inconclusive: 35.5 µM [inhibitor, single point]
O=C(ONC1=NCCCCC1)c1ccc(Cl)cc1	–	inconclusive: 17.8 µM [inhibitor, single point]
CCOC(=O)N1CCN(C(=O)CCSc2ccc(Cl)cc2)CC1	–	inconclusive: 15.8 µM [activator, single point]
Oc1ccc2c(c1)OCC1(O)Cc3cc(O)c(O)cc3C21 (stereo not given)	–	active: 0.708 µM
FC(F)(F)c1nnc(-c2ccccc2)nc1Sc1ccc(Cl)cc1	–	active: 6.31 µM

Whole records as entered above.
Oc1ccc2c(c1)OCC1(O)Cc3cc(O)c(O)cc3C21 (stereo not given) as listed: Potency: active: 0.708 µM
Cn1c(=O)c2c(nc(N/N=C/c3ccc(OC(=O)c4ccco4)cc3)n2Cc2ccc(F)cc2)n(C)c1=O as listed: activity change, negative = inhibition: inactive: -10.5%
